In patent WO2014084859A1:
No constants are given. Whether binding was seen depends on the method and setting. Some binding calls cover weakened binding; strength is not graded here. Tags and fused reporters may be left off the sequences shown.

What was measured:
[1] = molecular target: T1, TMEM16A-GFP fusion protein on HEK293 stable cells (UniProt Q5XXA6); experiment: flow cytometry on HEK293-TMEM16A cells
T1 sequence (looked up): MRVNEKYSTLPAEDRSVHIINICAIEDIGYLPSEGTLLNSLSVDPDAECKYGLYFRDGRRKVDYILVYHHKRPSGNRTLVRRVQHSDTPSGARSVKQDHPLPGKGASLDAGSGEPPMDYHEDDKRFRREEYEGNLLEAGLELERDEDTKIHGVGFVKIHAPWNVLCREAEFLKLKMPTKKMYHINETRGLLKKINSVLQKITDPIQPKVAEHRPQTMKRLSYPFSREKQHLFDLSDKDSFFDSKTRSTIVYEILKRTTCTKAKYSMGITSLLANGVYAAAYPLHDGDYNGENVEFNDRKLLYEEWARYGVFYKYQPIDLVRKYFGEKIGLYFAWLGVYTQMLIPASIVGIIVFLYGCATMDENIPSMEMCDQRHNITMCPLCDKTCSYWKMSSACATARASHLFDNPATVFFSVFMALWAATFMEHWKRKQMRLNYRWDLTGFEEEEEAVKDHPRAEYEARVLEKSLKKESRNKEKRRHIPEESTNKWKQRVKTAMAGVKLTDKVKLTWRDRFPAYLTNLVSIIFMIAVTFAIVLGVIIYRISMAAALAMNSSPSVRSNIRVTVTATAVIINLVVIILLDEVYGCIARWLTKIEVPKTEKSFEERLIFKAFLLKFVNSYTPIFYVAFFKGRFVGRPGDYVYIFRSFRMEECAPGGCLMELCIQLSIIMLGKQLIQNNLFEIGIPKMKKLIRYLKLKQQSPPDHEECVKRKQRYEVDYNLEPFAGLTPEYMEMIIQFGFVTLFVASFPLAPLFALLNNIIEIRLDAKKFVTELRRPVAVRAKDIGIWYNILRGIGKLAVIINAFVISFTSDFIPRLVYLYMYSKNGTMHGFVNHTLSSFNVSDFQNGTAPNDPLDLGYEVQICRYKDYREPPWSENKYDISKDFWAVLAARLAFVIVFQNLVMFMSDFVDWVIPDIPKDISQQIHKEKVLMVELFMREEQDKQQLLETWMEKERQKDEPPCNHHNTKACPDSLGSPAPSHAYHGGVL

[2] = molecular target: T1, TMEM16A-GFP fusion protein on HEK293 stable cells; experiment: flow cytometry on HEK293 stable cell lines
[3] = molecular target: T1, TMEM16A-GFP fusion protein on HEK293 stable cells; experiment: flow cytometry on TMEM16A expressing HEK293 cells, APC secondary antibody

Measured: binding

B1: 12E11 (antibody, V domains shown)
VH: QVQLKESGPGLVQPSQTLTLTCTVSGFSLSNYDMHWVRQSPGKGLDWMGVIWGNGKTQYNSGLTSRLSISRDTSKSQVFLKMNSLQTEDTAIYFCTRSGYYYDGSYYSLFDYWGQGVMVTVSS
VL: DVVLTQTPPTLSATIGQSVSISCRSSQSLLHSNGNTYLNWLLQRPGQPPQLLIYLVSRLESGVPNRFSGSGSGTDFTLKISGVEAEDLGVYYCVQSTHAPAFGGGTKLELK
binds: all assays above
